Residue numbers refer to the chain shown, from its start. Results are given in words; binding and its absence hold for the method and conditions named. Some binding calls cover weakened binding; strength is not graded here.

Protein sequences, listed by entry. Tags and fused reporters are not part of them. Residues count along the entry.
UniProt P21589, residues 27-547: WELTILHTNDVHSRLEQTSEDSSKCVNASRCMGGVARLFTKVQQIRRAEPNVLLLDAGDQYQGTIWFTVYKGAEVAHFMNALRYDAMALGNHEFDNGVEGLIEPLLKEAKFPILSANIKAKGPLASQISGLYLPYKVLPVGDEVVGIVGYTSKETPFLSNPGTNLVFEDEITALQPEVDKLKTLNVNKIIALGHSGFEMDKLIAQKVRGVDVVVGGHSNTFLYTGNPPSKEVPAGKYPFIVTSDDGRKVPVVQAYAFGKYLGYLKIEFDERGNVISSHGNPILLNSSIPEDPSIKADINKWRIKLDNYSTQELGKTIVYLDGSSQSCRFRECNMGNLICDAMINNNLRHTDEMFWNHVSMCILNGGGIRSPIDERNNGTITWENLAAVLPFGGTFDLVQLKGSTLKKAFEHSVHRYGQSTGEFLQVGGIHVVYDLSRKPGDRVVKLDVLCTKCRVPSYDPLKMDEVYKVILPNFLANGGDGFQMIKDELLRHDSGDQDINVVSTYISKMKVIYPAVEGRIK
UniProt Q61503, residues 29-549: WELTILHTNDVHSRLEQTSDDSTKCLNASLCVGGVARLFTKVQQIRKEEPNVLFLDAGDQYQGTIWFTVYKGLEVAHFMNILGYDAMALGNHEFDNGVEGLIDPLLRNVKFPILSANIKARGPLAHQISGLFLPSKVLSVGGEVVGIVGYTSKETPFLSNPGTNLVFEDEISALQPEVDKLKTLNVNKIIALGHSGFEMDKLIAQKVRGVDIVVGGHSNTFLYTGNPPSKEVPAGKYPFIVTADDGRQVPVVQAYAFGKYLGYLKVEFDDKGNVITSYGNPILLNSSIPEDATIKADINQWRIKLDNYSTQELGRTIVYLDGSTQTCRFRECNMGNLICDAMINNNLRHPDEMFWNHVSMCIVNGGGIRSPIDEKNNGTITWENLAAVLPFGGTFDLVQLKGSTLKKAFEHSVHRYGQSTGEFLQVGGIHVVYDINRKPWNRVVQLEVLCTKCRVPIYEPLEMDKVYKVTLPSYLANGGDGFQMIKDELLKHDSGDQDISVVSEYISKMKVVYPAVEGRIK

B1: 373.A Fab (Fab, V domains shown)
VH: EVQLLESGGGLVQPGGSLRLSCAASGFTFHRYAMSWVRQAPGKGLEWVSAISGSGMNTYYADSVKGRFTISRDNSKNTLYLQMNSLRAEDTAVYYCARGGLYGSGSYLSDFDLWGRGTLVTVSS
VL: EIVLTQSPATLSVSPGERATLSCRASQSVGSNLAWYQQKPGQAPRLLIYGASTRATGIPARFSGSGSGTEFTLTISSLQSEDFAVYYCQQHNAFPYTFGGGTKVEIKR
B2: 350.C (antibody, V domains shown)
VH: QVQLQESGPGLVKPSETLSLTCTVSGGSIERYYWSWIRQPPGKGLEWIGYIYGRGSTNYNPSLKSRVTISVDTSKNQFSLKLSSVTAADTAVYYCARESQESPYNNWFDPWGQGTLVTVSS
VL: DIQMTQSPSSVSASVGDRVTITCRASQGISSWLAWYQQKPGKAPKLLIYAASSLQSGVPSRFSGSGSGTDFTLTISSLQPEDFATYYCQQGNSFPRTFGGGTKVEIK
B3: 358.C (antibody, V domains shown)
VH: B2 VH with E30S, R31G, Y32R, R54T
VL: B2 VL
B4: 918.C (antibody, V domains shown)
VH: B2 VH with E30S, R31S, G53S, R54S
VL: B2 VL
B5: 356.C (antibody, V domains shown)
VH: B2 VH with R31G, Y32R, R54S, N58K
VL: B2 VL
B6: 373.C (antibody, V domains shown)
VH: B1 VH
VL: EIVLTQSPATLSVSPGERATLSCRASQSVGSNLAWYQQKPGQAPRLLIYGASTRATGIPARFSGSGSGTEFTLTISSLQSEDFAVYYCQQHNAFPYTFGGGTKVEIK
B7: 376.C (antibody, V domains shown)
VH: B1 VH with H30R, R31S, S52T, M56G, N57L
VL: B6 VL
B8: 377.C (antibody, V domains shown)
VH: B1 VH with H30K, R31S, M56S, N57Y
VL: B6 VL
B9: 374.C (antibody, V domains shown)
VH: B1 VH with H30S, R31Y, Y32N, A50S, S54T, M56G, N57S
VL: B6 VL
B10: 379.C (antibody, V domains shown)
VH: B1 VH with H30S, A50S, S54T, M56G, N57S
VL: B6 VL
B11: 918 (antibody, V domains shown)
VH: B2 VH with E30S, R31S, G53S, R54S
VL: B2 VL
B12: 358 (antibody, V domains shown)
VH: B2 VH with E30S, R31G, Y32R, R54T
VL: B2 VL
B13: 350 (antibody, V domains shown)
VH: B2 VH
VL: B2 VL
B14: 356 (antibody, V domains shown)
VH: B2 VH with R31G, Y32R, R54S, N58K
VL: B2 VL

The first assay has as its target Recombinant Human 5′-Nucleotidase/CD73 Protein, CF (R&D Systems Cat: 5795-EN) (human) (UniProt P21589). Briefly: Biacore SPR, His-tagged CD73 captured by anti-His antibody on CM5 chip, Fab as analyte. On the technique in general: SPR reads the build-up and loss of mass on a sensor chip optically.
On to B1, for which the binding entry was “binds”.

Another assay concerns the target Cynomolgus CD73/NT5E Protein (His Tag) (Sino Biological Cat: 90192-C08H-50) (cynomolgus monkey). Described as above.
For the molecule B1, the binding result is “binds”.

The next assay deals with Recombinant Human 5′-Nucleotidase/CD73 Protein, CF (R&D Systems Cat: 5795-EN) (human) (UniProt P21589). Nature of the assay: ForteBio Octet (BLI). In general terms: BLI is a label-free optical method that tracks binding on a fibre tip over time.
Regarding B2, the binding result is “binds”.
B3: the binding entry was “binds”.
Still for that read-out and setting: under B4 stands “binds”.
Consider B5, for which the binding result is given as “binds”.
Same read-out and setting: under B6 stands “binds”; under B7, “binds”; under B8, “binds”.
Same read-out and setting: the same measure for B9: “binds”; for B10: “binds”.

A further assay deals with Recombinant Mouse 5′-Nucleotidase/CD73 Protein, CF (R&D Systems Cat: 4488-EN) (mouse) (UniProt Q61503). Briefly: ForteBio Octet (BLI).
Regarding B2, the binding entry is “binds”.
The same measure, in the same setting: under B3 stands “binds”; under B4, “binds”.
On the same count and under the same terms, the same measure for B5: “binds”.

The target in the next assay is Cynomolgus CD73/NT5E Protein (His Tag) (Sino Biological Cat: 90192-C08H-50) (cynomolgus monkey). Nature of the assay: ForteBio Octet (BLI).
Take B2: the binding result was “binds”.
Same read-out and setting: under B3 stands “binds”; under B5, “binds”.
Regarding B6, the binding entry is given as “binds”.
On the same count and under the same terms, the same measure for B8: “binds”.
The same measure, in the same setting: under B9 stands “binds”.
On to B10, for which the binding entry is given as “binds”.

Another assay addresses Recombinant Mouse 5′-Nucleotidase/CD73 Protein, CF (R&D Systems Cat: 4488-EN) (mouse) (UniProt Q61503). Nature of the assay: restated binding profile (Octet).
As to B11, the binding result is on record as “binds”.
Same read-out and setting: under B12 stands “binds”.
The same measure, in the same setting: under B13 stands “binds”; under B14, “binds”.

Another assay deals with Recombinant Human 5′-Nucleotidase/CD73 Protein, CF (R&D Systems Cat: 5795-EN) (human) (UniProt P21589). Nature of the assay: screen of yeast-displayed human antibodies for binding to human CD73 (data not shown).
For B11, the binding entry is given as “binds”.

The values are drawn from US20240141060A1, “DOSAGE REGIMES FOR ANTI-CD73 AND ANTI-ENTPD2 ANTIBODIES AND USES THEREOF” (NOVARTIS AG, priority 2021, published 2024).
